According to the supplement of paper PMC4604168 (melanoma cell lines):
The list shows a part of the results. Single values are uncertain, as repeats are few or missing.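 Imaging used 1,536-well plates; nuclei positive for cleaved PARP by antibody were divided by total DNA-stained nuclei to yield the apoptosis fraction. Doses for screening kept most cells viable, and cell lines differ markedly in resting and induced cleaved-PARP levels.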

What was measured:
Test in all cases: cleaved PARP positive nuclei fraction relative to DMSO control; melanoma cells; higher = more apoptosis
Settings in all cases: library dose: low library concentration; 72 h
501Mel = tested on: 501Mel
A101D = tested on: A101D
A2058 = tested on: A2058
A375 = tested on: A375
C32 = tested on: C32
CBRC008 = tested on: CBRC008 (line from a melanoma biopsy)
CBRC014 = tested on: CBRC014 (line from a melanoma biopsy)
CBRC016 = tested on: CBRC016 (line from a melanoma biopsy)
CBRC017 = tested on: CBRC017 (line from a melanoma biopsy)

Row | Structure (SMILES) | cleaved PARP positive nuclei fraction (501Mel) | cleaved PARP positive nuclei fraction (A101D) | cleaved PARP positive nuclei fraction (A2058) | cleaved PARP positive nuclei fraction (A375) | cleaved PARP positive nuclei fraction (C32) | cleaved PARP positive nuclei fraction (CBRC008) | cleaved PARP positive nuclei fraction (CBRC014) | cleaved PARP positive nuclei fraction (CBRC016) | cleaved PARP positive nuclei fraction (CBRC017)
1 | Cn1cc(C2=C(c3cn(C4CCN(Cc5ccccn5)CC4)c4ccccc34)C(=O)NC2=O)c2ccccc21 [Enzastaurin] + CC(C)C[C@H](NC(=O)[C@H](Cc1ccccc1)NC(=O)c1cnccn1)B(O)O [Bortezomib] (first compound 0.8 µM, partner dose 0.001 µM) | 334% | 635% | 118% | 46.2% | 58.7% | 891% | 472% | 510% | 985%
2 | Cn1cc(C2=C(c3cn(C4CCN(Cc5ccccn5)CC4)c4ccccc34)C(=O)NC2=O)c2ccccc21 [Enzastaurin] + CNC(=O)c1cc(Oc2ccc(NC(=O)Nc3ccc(Cl)c(C(F)(F)F)c3)cc2)ccn1 [sorafenib] (first compound 0.8 µM, partner dose 0.4 µM) | 87.8% | 94.4% | 96.3% | 72.7% | 78.9% | 44.1% | 97% | 86.2% | 111%
3 | Cn1cc(C2=C(c3cn(C4CCN(Cc5ccccn5)CC4)c4ccccc34)C(=O)NC2=O)c2ccccc21 [Enzastaurin] + C[C@]1(c2nc3c(C(N)=O)cccc3[nH]2)CCCN1 [Veliparib] (first compound 0.8 µM, partner dose 1.4 µM) | 140% | 51.6% | 286% | 177% | 87.4% | 45.2% | 107% | 103% | 93.1%
4 | O=C(O)[C@@H]1[O][Sb](=[O])([O][Sb]2(=[O])[O][C@H]([C@H](O)CO)[C@H](O)[C@H](C(=O)O)[O]2)[O][C@H]([C@H](O)CO)[C@@H]1O (stereo partly drawn) [stibogluconate] + C[As](C)SC[C@H](NC(=O)CC[C@H](N)C(=O)O)C(=O)NCC(=O)O [Darinaparsin] (first compound 2 µM, partner dose 0.4 µM) | 101% | 169% | 107% | 52.2% | 71% | 52.9% | 96.1% | 150% | 100%
5 | N.N.[Cl][Pt][Cl] [cisplatin] + Nc1nc(F)nc2c1ncn2[C@@H]1O[C@H](CO)[C@@H](O)[C@@H]1O [fludarabine] (first compound 1.6 µM, partner dose 0.2 µM) | 3890% | 50.9% | 109% | 7980% | 68.3% | 267% | 89.2% | 101% | 88%
6 | Cc1ccc(Nc2nccc(N(C)c3ccc4c(C)n(C)nc4c3)n2)cc1S(N)(=O)=O [Pazopanib] + C[C@]12O[C@H](C[C@]1(O)CO)n1c3ccccc3c3c4c(c5c6ccccc6n2c5c31)CNC4=O [Lestaurtinib] (first compound 0.4 µM, partner dose 0.004 µM) | 72.1% | 51.8% | 179% | 186% | 82.5% | 81.6% | 116% | 65.9% | 104%
7 | Cn1cc(C2=C(c3cn(C4CCN(Cc5ccccn5)CC4)c4ccccc34)C(=O)NC2=O)c2ccccc21 [Enzastaurin] + Nc1nc(F)nc2c1ncn2[C@@H]1O[C@H](CO)[C@@H](O)[C@@H]1O [fludarabine] (first compound 0.8 µM, partner dose 0.2 µM) | 12700% | 126% | 109% | 3260% | 73.4% | 27.7% | 107% | 86% | 99.8%
8 | CCCCCCCCCCCCCCCCCCOP(=O)([O-])OC1CC[N+](C)(C)CC1 [Perifosine] + C[As](C)SC[C@H](NC(=O)CC[C@H](N)C(=O)O)C(=O)NCC(=O)O [Darinaparsin] (first compound 0.4 µM, partner dose 0.4 µM) | 88.3% | 90.5% | 75% | 377% | 85% | 50.2% | 109% | 152% | 130%
9 | C[C@]12O[C@H](C[C@]1(O)CO)n1c3ccccc3c3c4c(c5c6ccccc6n2c5c31)CNC4=O [Lestaurtinib] + CS(=O)(=O)c1ccc(C(=O)Nc2ccc(Cl)c(-c3ccccn3)c2)c(Cl)c1 [vismodegib] (first compound 0.004 µM, partner dose 1 µM) | 87.7% | 120% | 98.9% | 77.3% | 296% | 155% | 88.8% | 133% | 83.8%
10 | N.N.[Cl][Pt][Cl] [cisplatin] + CC(=O)c1c(C)c2cnc(Nc3ccc(N4CCNCC4)cn3)nc2n(C2CCCC2)c1=O [palbociclib] (first compound 1.6 µM, partner dose 0.04 µM) | 95.3% | 138% | 108% | 203% | 84% | 220% | 95.2% | 140% | 91.6%
11 | Cn1cc(C2=C(c3cn(C4CCN(Cc5ccccn5)CC4)c4ccccc34)C(=O)NC2=O)c2ccccc21 [Enzastaurin] + C=CCNC1=C2C[C@@H](C)C[C@H](OC)[C@H](O)[C@@H](C)/C=C(\C)[C@H](OC(N)=O)[C@@H](OC)/C=C\C=C(/C)C(=O)NC(=CC1=O)C2=O [Tanespimycin] (first compound 0.8 µM, partner dose 0.002 µM) | 104% | 92.4% | 206% | 163% | 68.8% | 213% | 139% | 182% | 119%
12 | CN(c1ncccc1CNc1nc(Nc2ccc3c(c2)CC(=O)N3)ncc1C(F)(F)F)S(C)(=O)=O + C[As](C)SC[C@H](NC(=O)CC[C@H](N)C(=O)O)C(=O)NCC(=O)O [Darinaparsin] (first compound 0.08 µM, partner dose 0.4 µM) | 469% | 41.6% | 97% | 68.8% | 187% | 113% | 101% | 72.7% | 96.3%
13 | O=C(Nc1cc(C(F)(F)F)cc(C(F)(F)F)c1)c1cc(Cl)ccc1O + N.N.[Cl][Pt][Cl] [cisplatin] (first compound 0.016 µM, partner dose 1.6 µM) | 73.6% | 166% | 302% | 43.6% | 81.2% | 169% | 128% | 286% | 117%
14 | C[C@]12O[C@H](C[C@]1(O)CO)n1c3ccccc3c3c4c(c5c6ccccc6n2c5c31)CNC4=O [Lestaurtinib] + C=CCNC1=C2C[C@@H](C)C[C@H](OC)[C@H](O)[C@@H](C)/C=C(\C)[C@H](OC(N)=O)[C@@H](OC)/C=C\C=C(/C)C(=O)NC(=CC1=O)C2=O [Tanespimycin] (first compound 0.004 µM, partner dose 0.002 µM) | 119% | 104% | 211% | 104% | 159% | 154% | 78.3% | 155% | 102%
15 | Cn1cc(C2=C(c3cn(C4CCN(Cc5ccccn5)CC4)c4ccccc34)C(=O)NC2=O)c2ccccc21 [Enzastaurin] + COCC[n+]1c2c(n(Cc3cnccn3)c1C)C(=O)c1ccccc1C2=O [YM155] (first compound 0.8 µM, partner dose 0.0004 µM) | 64.8% | 57.9% | 177% | 242% | 158% | 130% | 99.1% | 229% | 109%
16 | N.N.[Cl][Pt][Cl] [cisplatin] + CN1CCN(c2ccc3nc(-c4c(N)c5c(F)cccc5[nH]c4=O)[nH]c3c2)CC1 [Dovitinib] (first compound 1.6 µM, partner dose 0.1 µM) | 78.1% | 92.3% | 61.9% | 181% | 79.9% | 77.9% | 98.3% | 92.7% | 129%
17 | O=C(Nc1cc(C(F)(F)F)cc(C(F)(F)F)c1)c1cc(Cl)ccc1O + C[As](C)SC[C@H](NC(=O)CC[C@H](N)C(=O)O)C(=O)NCC(=O)O [Darinaparsin] (first compound 0.016 µM, partner dose 0.4 µM) | 93.6% | 135% | 106% | 19% | 63.4% | 71.6% | 81.4% | 78.4% | 98.9%
18 | Cc1cn(-c2cc(NC(=O)c3ccc(C)c(Nc4nccc(-c5cccnc5)n4)c3)cc(C(F)(F)F)c2)cn1 [nilotinib] + N.N.[Cl][Pt][Cl] [cisplatin] (first compound 0.2 µM, partner dose 1.6 µM) | 224% | 105% | 107% | 111% | 258% | 103% | 103% | 166% | 132%
19 | O=c1[nH]nc(Sc2ncc([N+](=O)[O-])s2)n1-c1ccc2c(c1)OCCO2 + N.N.[Cl][Pt][Cl] [cisplatin] (first compound 0.2 µM, partner dose 1.6 µM) | 99.6% | 38.8% | 50.7% | 101% | 68.9% | 41.6% | 97.2% | 168% | 132%
20 | C#Cc1cccc(Nc2ncnc3cc(OCCOC)c(OCCOC)cc23)c1 [erlotinib] + C[As](C)SC[C@H](NC(=O)CC[C@H](N)C(=O)O)C(=O)NCC(=O)O [Darinaparsin] (first compound 0.8 µM, partner dose 0.4 µM) | 95.2% | 190% | 126% | 180% | 79.7% | 193% | 102% | 182% | 112%
21 | CC1(C)CCC(c2ccc(Cl)cc2)=C(CN2CCN(c3ccc(C(=O)NS(=O)(=O)c4ccc(N[C@H](CCN5CCOCC5)CSc5ccccc5)c(S(=O)(=O)C(F)(F)F)c4)cc3)CC2)C1 + Cn1cc(C2=C(c3cn(C4CCN(Cc5ccccn5)CC4)c4ccccc34)C(=O)NC2=O)c2ccccc21 [Enzastaurin] (first compound 0.4 µM, partner dose 0.8 µM) | 54.6% | 161% | 207% | 380% | 149% | 531% | 556% | 813% | 307%
22 | Cn1cc(C2=C(c3cn(C4CCN(Cc5ccccn5)CC4)c4ccccc34)C(=O)NC2=O)c2ccccc21 [Enzastaurin] + Cn1sc(=O)n(Cc2ccccc2)c1=O [TDZD-8] (first compound 0.8 µM, partner dose 0.4 µM) | 24.3% | 64% | 65% | 162% | 68% | 35.7% | 85.7% | 81.4% | 121%

Some values from the list:
Cn1cc(C2=C(c3cn(C4CCN(Cc5ccccn5)CC4)c4ccccc34)C(=O)NC2=O)c2ccccc21 [Enzastaurin] + Cn1sc(=O)n(Cc2ccccc2)c1=O [TDZD-8] (first compound 0.8 µM, partner dose 0.4 µM) – cleaved PARP positive nuclei fraction (CBRC017): 121%
O=C(Nc1cc(C(F)(F)F)cc(C(F)(F)F)c1)c1cc(Cl)ccc1O + C[As](C)SC[C@H](NC(=O)CC[C@H](N)C(=O)O)C(=O)NCC(=O)O [Darinaparsin] (first compound 0.016 µM, partner dose 0.4 µM) – cleaved PARP positive nuclei fraction (CBRC016): 78.4%
